39 targets from the supplement of paper PMC6411743 can be followed below.

The chains behind the UniProt entries cited, without tags or fusion partners. Where a name states a change or a piece, a line headed by the entry shows the natural chain unless it says otherwise.
UniProt Q9Y2D4: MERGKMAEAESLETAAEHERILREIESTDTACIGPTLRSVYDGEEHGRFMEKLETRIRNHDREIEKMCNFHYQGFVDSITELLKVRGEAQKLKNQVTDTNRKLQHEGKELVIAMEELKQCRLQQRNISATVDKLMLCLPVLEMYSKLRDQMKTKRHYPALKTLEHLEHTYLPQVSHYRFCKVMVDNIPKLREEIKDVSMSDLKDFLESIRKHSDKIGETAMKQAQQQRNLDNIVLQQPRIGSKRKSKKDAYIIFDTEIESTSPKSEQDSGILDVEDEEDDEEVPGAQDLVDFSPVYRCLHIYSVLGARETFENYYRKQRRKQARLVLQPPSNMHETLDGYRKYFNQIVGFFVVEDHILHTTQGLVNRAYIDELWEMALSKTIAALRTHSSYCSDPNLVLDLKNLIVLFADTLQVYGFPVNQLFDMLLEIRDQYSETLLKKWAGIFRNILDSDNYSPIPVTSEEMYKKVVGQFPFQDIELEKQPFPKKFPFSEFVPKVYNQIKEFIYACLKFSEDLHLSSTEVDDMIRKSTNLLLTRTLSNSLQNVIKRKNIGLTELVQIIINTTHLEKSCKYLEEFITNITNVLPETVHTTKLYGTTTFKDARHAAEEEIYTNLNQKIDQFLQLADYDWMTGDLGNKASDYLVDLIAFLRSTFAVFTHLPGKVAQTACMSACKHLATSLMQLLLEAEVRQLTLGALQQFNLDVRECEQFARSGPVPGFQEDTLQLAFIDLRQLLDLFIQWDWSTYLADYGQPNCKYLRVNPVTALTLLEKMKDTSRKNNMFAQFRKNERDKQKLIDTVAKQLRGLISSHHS
UniProt Q8IWA4: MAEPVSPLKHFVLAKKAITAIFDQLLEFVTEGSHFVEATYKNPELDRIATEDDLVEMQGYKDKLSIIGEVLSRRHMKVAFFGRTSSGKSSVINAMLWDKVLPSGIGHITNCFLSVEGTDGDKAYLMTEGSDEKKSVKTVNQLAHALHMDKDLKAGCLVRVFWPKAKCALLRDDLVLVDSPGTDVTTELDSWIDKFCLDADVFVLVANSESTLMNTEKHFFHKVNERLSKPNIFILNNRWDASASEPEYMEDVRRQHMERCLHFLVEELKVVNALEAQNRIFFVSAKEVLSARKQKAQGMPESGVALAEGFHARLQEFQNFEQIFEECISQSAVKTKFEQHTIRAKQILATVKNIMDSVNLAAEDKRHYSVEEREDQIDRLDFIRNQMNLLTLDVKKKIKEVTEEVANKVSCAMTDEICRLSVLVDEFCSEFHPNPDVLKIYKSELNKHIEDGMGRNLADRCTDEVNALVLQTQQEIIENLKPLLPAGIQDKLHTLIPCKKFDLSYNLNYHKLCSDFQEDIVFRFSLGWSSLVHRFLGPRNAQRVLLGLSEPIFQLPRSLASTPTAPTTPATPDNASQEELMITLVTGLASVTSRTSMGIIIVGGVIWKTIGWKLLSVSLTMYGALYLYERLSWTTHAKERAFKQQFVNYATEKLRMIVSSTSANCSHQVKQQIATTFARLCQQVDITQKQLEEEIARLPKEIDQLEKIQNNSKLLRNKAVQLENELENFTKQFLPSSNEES
UniProt O75955: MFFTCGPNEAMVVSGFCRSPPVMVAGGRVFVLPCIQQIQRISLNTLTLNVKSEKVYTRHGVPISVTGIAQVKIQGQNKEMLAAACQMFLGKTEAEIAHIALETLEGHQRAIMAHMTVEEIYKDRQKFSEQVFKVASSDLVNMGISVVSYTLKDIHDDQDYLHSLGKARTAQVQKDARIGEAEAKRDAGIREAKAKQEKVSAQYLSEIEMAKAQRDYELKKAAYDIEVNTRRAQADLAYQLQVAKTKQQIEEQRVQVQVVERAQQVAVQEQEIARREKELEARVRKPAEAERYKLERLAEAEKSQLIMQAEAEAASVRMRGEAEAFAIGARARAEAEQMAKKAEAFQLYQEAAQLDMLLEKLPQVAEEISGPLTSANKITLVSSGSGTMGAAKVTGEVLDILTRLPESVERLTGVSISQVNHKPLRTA
UniProt Q9UMY4: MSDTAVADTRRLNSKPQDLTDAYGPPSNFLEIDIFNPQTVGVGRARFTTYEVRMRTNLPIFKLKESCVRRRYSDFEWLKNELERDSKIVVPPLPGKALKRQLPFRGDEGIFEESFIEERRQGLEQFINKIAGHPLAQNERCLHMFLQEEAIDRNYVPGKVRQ
UniProt Q9H967: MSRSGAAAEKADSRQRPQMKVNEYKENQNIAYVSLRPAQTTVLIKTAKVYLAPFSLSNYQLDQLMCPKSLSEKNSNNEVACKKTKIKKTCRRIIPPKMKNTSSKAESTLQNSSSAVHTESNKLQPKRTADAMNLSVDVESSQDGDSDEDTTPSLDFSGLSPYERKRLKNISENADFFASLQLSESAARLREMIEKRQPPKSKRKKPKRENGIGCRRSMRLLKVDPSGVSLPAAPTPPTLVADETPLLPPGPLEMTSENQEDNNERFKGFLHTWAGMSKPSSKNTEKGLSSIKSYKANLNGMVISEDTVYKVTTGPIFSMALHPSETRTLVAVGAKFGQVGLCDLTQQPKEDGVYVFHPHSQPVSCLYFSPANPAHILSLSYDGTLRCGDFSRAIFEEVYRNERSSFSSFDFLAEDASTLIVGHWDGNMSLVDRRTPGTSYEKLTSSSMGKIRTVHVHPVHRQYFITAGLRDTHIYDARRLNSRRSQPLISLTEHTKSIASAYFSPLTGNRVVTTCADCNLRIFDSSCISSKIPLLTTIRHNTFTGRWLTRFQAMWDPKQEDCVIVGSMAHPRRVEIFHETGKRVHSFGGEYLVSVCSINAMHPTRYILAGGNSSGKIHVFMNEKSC
UniProt Q14242: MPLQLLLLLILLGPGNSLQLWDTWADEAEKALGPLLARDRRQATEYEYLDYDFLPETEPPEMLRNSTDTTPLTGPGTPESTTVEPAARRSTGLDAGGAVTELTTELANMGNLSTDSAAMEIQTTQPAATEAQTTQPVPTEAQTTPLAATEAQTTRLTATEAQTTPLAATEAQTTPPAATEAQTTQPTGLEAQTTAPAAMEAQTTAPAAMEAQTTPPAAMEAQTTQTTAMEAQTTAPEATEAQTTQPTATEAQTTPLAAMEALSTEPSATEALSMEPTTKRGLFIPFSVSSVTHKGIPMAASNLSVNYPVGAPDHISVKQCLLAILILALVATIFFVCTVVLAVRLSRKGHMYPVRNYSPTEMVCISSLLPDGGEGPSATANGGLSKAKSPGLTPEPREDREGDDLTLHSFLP
UniProt Q9Y484: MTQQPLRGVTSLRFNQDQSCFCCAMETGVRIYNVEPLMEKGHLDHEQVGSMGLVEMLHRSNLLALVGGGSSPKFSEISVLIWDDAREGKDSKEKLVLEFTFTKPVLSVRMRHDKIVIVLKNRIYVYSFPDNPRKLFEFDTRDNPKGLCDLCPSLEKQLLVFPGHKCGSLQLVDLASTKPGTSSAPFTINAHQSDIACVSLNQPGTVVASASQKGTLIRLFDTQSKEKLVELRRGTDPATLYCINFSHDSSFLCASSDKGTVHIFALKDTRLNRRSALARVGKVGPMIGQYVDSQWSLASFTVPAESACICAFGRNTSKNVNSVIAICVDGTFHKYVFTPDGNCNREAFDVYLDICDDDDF
UniProt Q99798: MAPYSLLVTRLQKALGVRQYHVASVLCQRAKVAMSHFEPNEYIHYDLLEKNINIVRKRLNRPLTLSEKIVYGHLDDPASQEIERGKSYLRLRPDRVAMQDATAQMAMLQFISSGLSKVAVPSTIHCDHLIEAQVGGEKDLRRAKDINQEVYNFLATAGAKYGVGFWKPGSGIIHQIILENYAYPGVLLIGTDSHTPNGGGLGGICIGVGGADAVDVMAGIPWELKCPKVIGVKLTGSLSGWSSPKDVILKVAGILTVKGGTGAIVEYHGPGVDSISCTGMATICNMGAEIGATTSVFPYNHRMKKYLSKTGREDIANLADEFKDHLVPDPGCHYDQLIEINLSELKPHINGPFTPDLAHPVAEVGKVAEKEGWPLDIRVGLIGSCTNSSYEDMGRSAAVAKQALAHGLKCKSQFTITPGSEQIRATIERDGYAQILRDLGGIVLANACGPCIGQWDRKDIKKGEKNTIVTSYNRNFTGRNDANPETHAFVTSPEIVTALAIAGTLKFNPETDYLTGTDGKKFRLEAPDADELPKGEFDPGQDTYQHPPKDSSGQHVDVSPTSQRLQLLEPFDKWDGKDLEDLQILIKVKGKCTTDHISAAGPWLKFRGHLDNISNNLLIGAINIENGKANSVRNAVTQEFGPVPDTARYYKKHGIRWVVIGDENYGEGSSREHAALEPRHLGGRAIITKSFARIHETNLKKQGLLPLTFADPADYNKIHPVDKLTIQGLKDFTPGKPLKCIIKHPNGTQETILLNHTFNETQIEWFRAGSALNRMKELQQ
UniProt Q9Y240: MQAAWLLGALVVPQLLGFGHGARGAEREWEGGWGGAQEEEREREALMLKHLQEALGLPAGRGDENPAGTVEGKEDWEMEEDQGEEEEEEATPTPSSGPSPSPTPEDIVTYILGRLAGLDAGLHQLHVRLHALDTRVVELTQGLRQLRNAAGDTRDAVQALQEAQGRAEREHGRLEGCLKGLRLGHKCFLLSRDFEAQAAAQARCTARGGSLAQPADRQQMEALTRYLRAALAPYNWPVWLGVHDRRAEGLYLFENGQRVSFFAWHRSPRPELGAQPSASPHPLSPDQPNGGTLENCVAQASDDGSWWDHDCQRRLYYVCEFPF
UniProt Q7Z3E5: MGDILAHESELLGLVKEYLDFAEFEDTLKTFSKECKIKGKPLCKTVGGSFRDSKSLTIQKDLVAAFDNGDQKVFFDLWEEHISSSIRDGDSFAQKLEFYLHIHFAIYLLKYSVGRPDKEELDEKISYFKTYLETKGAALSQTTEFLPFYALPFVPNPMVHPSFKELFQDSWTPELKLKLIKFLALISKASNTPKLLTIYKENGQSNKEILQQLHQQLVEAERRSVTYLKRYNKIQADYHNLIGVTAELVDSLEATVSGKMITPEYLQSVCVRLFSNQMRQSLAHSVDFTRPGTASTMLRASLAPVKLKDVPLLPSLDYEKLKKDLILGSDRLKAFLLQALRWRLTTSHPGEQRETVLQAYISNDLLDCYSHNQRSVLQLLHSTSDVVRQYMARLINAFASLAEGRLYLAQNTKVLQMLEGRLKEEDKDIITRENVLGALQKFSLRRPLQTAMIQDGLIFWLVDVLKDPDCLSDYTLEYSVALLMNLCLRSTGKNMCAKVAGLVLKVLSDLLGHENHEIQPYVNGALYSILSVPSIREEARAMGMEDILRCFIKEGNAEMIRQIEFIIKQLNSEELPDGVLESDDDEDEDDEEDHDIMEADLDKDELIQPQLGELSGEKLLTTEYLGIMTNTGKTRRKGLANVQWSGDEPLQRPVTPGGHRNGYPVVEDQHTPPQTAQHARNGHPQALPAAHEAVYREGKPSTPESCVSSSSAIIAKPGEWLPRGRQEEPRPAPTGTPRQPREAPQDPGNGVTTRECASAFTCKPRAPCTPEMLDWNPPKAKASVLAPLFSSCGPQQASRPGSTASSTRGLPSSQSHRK
UniProt Q96MY1: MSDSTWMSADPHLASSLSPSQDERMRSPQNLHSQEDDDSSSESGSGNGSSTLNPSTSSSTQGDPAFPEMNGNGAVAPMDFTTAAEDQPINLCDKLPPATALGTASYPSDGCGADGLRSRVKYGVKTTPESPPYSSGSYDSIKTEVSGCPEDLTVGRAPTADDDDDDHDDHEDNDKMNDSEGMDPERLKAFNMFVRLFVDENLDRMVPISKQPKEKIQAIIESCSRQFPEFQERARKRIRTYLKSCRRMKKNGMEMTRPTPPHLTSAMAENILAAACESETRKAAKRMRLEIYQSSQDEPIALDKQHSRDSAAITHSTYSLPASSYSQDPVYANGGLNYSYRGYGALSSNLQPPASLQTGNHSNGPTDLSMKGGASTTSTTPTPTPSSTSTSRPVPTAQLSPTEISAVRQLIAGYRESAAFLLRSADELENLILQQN
UniProt Q8ND83, whole entry: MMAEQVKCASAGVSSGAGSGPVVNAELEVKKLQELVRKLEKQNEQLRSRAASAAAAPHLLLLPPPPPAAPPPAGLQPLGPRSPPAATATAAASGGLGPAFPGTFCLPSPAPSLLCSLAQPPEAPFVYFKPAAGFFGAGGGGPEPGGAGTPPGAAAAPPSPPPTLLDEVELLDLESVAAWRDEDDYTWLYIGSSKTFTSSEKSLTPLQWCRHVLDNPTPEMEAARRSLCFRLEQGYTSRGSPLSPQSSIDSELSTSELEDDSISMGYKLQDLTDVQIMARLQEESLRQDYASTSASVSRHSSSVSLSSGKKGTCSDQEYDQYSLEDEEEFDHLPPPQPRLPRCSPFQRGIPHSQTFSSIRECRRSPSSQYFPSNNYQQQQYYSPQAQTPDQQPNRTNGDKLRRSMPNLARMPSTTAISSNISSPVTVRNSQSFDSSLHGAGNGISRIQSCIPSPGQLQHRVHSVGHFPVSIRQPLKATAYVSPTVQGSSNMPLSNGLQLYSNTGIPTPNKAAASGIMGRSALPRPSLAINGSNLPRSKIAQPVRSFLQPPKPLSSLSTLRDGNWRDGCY

Compound in the experiment: Nc1ncnc2c1ncn2[C@@H]1O[C@H](COP(=O)(O)OP(=O)(O)NP(=O)(O)O)[C@@H](O)[C@H]1O [adenylyl imidodiphosphate]
Nature of the experiment: NP40-soluble protein abundance relative to vehicle (solubility fold change) (ratio); higher = more soluble protein in presence of AMP-PNP. In outline:
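Jurkat crude lysate (Dounce-homogenised) was treated with eight concentrations from 0.1 to 10 mM for 10 min at room temperature, then 3 min at 37 °C. It was solubilised with 0.8% NP40 and benzonase (60 min, 4 °C) and ultracentrifuged, and the supernatant was TMT-labelled for LC-MS/MS. Intensities were vsn-normalised, and the value is the fold change against the NP40-processed vehicle per replicate, from three independent experiments.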

± gives the standard deviation of the averaged measurements. The list shows a part of the results, in another mix than the full data. Small differences around the control level are noise.

Take “A0A0G2JPT5|O75943 and related entries (UniProt O75943)”: the NP40-soluble protein abundance was found to be 0.9944 ± 0.0034 (concentration: 0.1mM) and 0.984 ± 0.034 (concentration: 0.5mM).

On to A0A0U1RRB6|Q9Y2D4 (UniProt Q9Y2D4), for which the NP40-soluble protein abundance reads like this: (concentration: 0.1mM) 1.01 ± 0.017; (concentration: 0.5mM) 0.99 ± 0.037.

As for A0A0C4DGA6|Q14527 (UniProt Q14527), the NP40-soluble protein abundance runs as follows: (concentration: 0.1mM) 1.003 ± 0.005; (concentration: 0.5mM) 0.994 ± 0.045.

As to A0A0J9YYJ0|Q8N129 (UniProt Q8N129), the NP40-soluble protein abundance reads like this: (concentration: 0.1mM) 1.025 ± 0.0071; (concentration: 0.5mM) 1.02 ± 0.016.

Consider “A0A0A0MRU0|A0A0C4DH75|A0A0D9SFF8|B4DZ84 and related entries (UniProt Q14168)”, for which the NP40-soluble protein abundance runs as follows: (concentration: 0.1mM) 0.968 ± 0.036; (concentration: 0.5mM) 0.949 ± 0.025.

In the case of A0A0C4DFM7|Q5TAX3 (UniProt Q5TAX3), the NP40-soluble protein abundance (concentration: 0.1mM) came out at 0.977 ± 0.019 and the NP40-soluble protein abundance (concentration: 0.5mM) was determined as 0.993 ± 0.053.

As for “A0A087X0M0|Q7Z5L2 and related entries (UniProt Q7Z5L2)”, the NP40-soluble protein abundance runs as follows: (concentration: 0.1mM) 0.97 ± 0.032; (concentration: 0.5mM) 0.968 ± 0.025.

“A0A0A6YYJ5|E9PLY5 and related entries (UniProt Q9UPN3+H3BQK9+H3BPE1+E9PLY5)”: the NP40-soluble protein abundance is 0.979 ± 0.025 (concentration: 0.1mM) and 0.979 ± 0.029 (concentration: 0.5mM).

In the case of “A0A0A0MT35|Q8TBF2 and related entries (UniProt Q8TBF2)”, the NP40-soluble protein abundance was 1.01 ± 0.021 (concentration: 0.1mM) and 1 ± 0.025 (concentration: 0.5mM).

In the case of “A0A087X211|Q8TCG1 and related entries (UniProt Q8TCG1)”, the NP40-soluble protein abundance reads like this: (concentration: 0.1mM) 0.982 ± 0.04; (concentration: 0.5mM) 0.995 ± 0.068.

Take A0A087WY55|Q9NP79 (UniProt Q9NP79): the NP40-soluble protein abundance (concentration: 0.1mM) was determined as 1.01 ± 0.066 and the NP40-soluble protein abundance (concentration: 0.5mM) came out at 1.05 ± 0.12.

As to A0A0C4DFN1|Q8IWA4 (UniProt Q8IWA4), the NP40-soluble protein abundance is, setting by setting: (concentration: 0.1mM) 0.991 ± 0.036; (concentration: 0.5mM) 0.997 ± 0.043.

For “A0A140T9R1|A2ABJ5 and related entries (UniProt O75955)”, the NP40-soluble protein abundance worked out at 1.06 ± 0.062 (concentration: 0.1mM) and 0.979 ± 0.012 (concentration: 0.5mM).

In the case of A0AVT1, the NP40-soluble protein abundance by setting is: (concentration: 0.1mM) 0.9855 ± 0.008; (concentration: 0.5mM) 0.988 ± 0.04.

On to “A0A087X0R6|Q9UMY4 and related entries (UniProt Q9UMY4)”, for which the NP40-soluble protein abundance is, setting by setting: (concentration: 0.1mM) 1.11 ± 0.063; (concentration: 0.5mM) 1.07 ± 0.029.

For “A0A0A0MRR5|Q96BW1 and related entries (UniProt Q96BW1)”, the NP40-soluble protein abundance by setting is: (concentration: 0.1mM) 1.03 ± 0.028; (concentration: 0.5mM) 0.984 ± 0.043.

As to A0A087X0M4|Q9BWU0 (UniProt Q9BWU0), the NP40-soluble protein abundance is 0.971 ± 0.024 (concentration: 0.1mM) and 0.979 ± 0.013 (concentration: 0.5mM).

With “A0A0J9YWD5|A0A0J9YYB5|B7ZM65 and related entries (UniProt Q9P1Y6)”, the NP40-soluble protein abundance (concentration: 0.1mM) amounted to 0.997 ± 0.059 and the NP40-soluble protein abundance (concentration: 0.5mM) is 0.977 ± 0.018.

Regarding “A0A0A0MTC2|D6RA37 and related entries (UniProt Q13454)”, the NP40-soluble protein abundance reads like this: (concentration: 0.1mM) 1.01 ± 0.024; (concentration: 0.5mM) 1 ± 0.065.

“A0A0A0MSG2|J3KNW4 and related entries (UniProt Q14192)”: the NP40-soluble protein abundance was 0.995 ± 0.014 (concentration: 0.1mM) and 0.984 ± 0.013 (concentration: 0.5mM).

For A0A0C4DFX7|Q9H967 (UniProt Q9H967), the NP40-soluble protein abundance runs as follows: (concentration: 0.1mM) 1.016 ± 0.0038; (concentration: 0.5mM) 0.982 ± 0.01.

In the case of “A0A087WW65|O75027 and related entries (UniProt O75027)”, the NP40-soluble protein abundance reads like this: (concentration: 0.1mM) 1.02 ± 0.023; (concentration: 0.5mM) 0.995 ± 0.066.

Take A0A0C4DFW4|Q5JUR7 (UniProt Q5JUR7): the NP40-soluble protein abundance was 1 ± 0.026 (concentration: 0.1mM) and 1.01 ± 0.033 (concentration: 0.5mM).

Consider “A0A0C4DFY0|Q14242 and related entries (UniProt Q14242)”, for which the NP40-soluble protein abundance (concentration: 0.1mM) was 0.968 ± 0.012 and the NP40-soluble protein abundance (concentration: 0.5mM) came to 0.981 ± 0.013.

For “A0A087X060|G3V2W9 and related entries (UniProt Q56P03)”, the NP40-soluble protein abundance (concentration: 0.1mM) turned out to be 0.99 ± 0.018 and the NP40-soluble protein abundance (concentration: 0.5mM) stood at 0.9924 ± 0.0052.

For the target “A0A0U1RQG6|A0A0U1RQM7|A0A0U1RR06|C9JYH8 and related entries (UniProt Q9Y484)”, the NP40-soluble protein abundance was 0.9919 ± 0.0079 (concentration: 0.1mM) and 0.979 ± 0.045 (concentration: 0.5mM).

On to “A0A0C4DFM2|Q6ZN55 and related entries (UniProt Q6ZN55)”, for which the NP40-soluble protein abundance runs as follows: (concentration: 0.1mM) 1.03 ± 0.035; (concentration: 0.5mM) 0.999 ± 0.015.

As for “A2A274 and related entries (UniProt Q99798)”, the NP40-soluble protein abundance reads like this: (concentration: 0.1mM) 1.012 ± 0.0089; (concentration: 0.5mM) 0.975 ± 0.032.

As to “A0A0U1RRK1|F6XEV2 and related entries (UniProt Q9BPX6)”, the NP40-soluble protein abundance is 0.983 ± 0.032 (concentration: 0.1mM) and 0.991 ± 0.012 (concentration: 0.5mM).

With “A0A0A0MRR1|Q5VV50 and related entries (UniProt Q5VV52)”, the NP40-soluble protein abundance worked out at 1.025 ± 0.0086 (concentration: 0.1mM) and 1.02 ± 0.015 (concentration: 0.5mM).

On to “A0A0A6YYA0|Q86XR7-2|Q9Y3B3 and related entries (UniProt Q9Y3B3+Q86XR7)”, for which the NP40-soluble protein abundance was 0.9861 ± 0.0035 (concentration: 0.1mM) and 0.973 ± 0.051 (concentration: 0.5mM).

In the case of A0A0A6YY95|Q9Y240 (UniProt Q9Y240), the NP40-soluble protein abundance reads like this: (concentration: 0.1mM) 1 ± 0.019; (concentration: 0.5mM) 0.993 ± 0.04.

Take “A0A087X1I8|Q7Z3E5 and related entries (UniProt Q7Z3E5)”: the NP40-soluble protein abundance stood at 1 ± 0.037 (concentration: 0.1mM) and 0.986 ± 0.03 (concentration: 0.5mM).

Consider “A0A0A0MQT4|Q5QP82 and related entries (UniProt Q5QP82)”, for which the NP40-soluble protein abundance is 0.983 ± 0.019 (concentration: 0.1mM) and 0.98 ± 0.013 (concentration: 0.5mM).

In the case of A0A087X0N3|Q96MY1 (UniProt Q96MY1), the NP40-soluble protein abundance by setting is: (concentration: 0.1mM) 0.974 ± 0.013; (concentration: 0.5mM) 0.977 ± 0.027.

Consider “A0A087X1G7|A0A0B4J1S4|O60613 (UniProt O60613)”, for which the NP40-soluble protein abundance is, setting by setting: (concentration: 0.1mM) 1.02 ± 0.051; (concentration: 0.5mM) 1.02 ± 0.022.

For the target “A0A0A0MSS3|Q5T6P1 and related entries (UniProt Q8ND83)”, the NP40-soluble protein abundance (concentration: 0.1mM) was found to be 1 ± 0.011 and the NP40-soluble protein abundance (concentration: 0.5mM) came to 0.997 ± 0.029.

Consider “A0A0A6YYI3|A0A0B4J1V8|Q9NQ55 and related entries (UniProt Q9NQ55)”, for which the NP40-soluble protein abundance was found to be 1.022 ± 0.0067 (concentration: 0.1mM) and 0.9849 ± 0.0075 (concentration: 0.5mM).

Turning to A0A087WYU2|Q96S19 (UniProt Q96S19), the NP40-soluble protein abundance amounted to 1.01 ± 0.021 (concentration: 0.1mM) and 0.9952 ± 0.0082 (concentration: 0.5mM).
